# The other results are listed elsewhere or left out.
# B1: Clec39 (Caenorhabditis elegans) (protein)
# chain: MTSFYDNSSSSSKPVPLKTSRAQKIQILIFDNWKLILYGAISTLILVLAIMFSTLFFALPAANCDENSEPTKYYTTNAEITTTITTTNQKTTSTASSHLTTISSSATQIYSESSSSSTSQSTFTQSPPEISTTTIAPSDFSCQHGFTLVNNKCWKLVTSNQARPDADKICNGYGGATLFSIKSEQDNRAMIHFVKGQDIDFLWSGLLCSAGEPISCIWDIENGSTANYSNFADGFPNIVYGNCVYFITSGDEAGQWGNEQCGQVMNFVCELPATFQGKDGCKNNYEKSCYLRFDLNLTVPQAQNFCLEKCANLVSIHSANEVRFIMTIYDFIGEILIGALAPAQDFIYWLDGTPANYNNLKFFYNSTCVHMTVAPGMQNVGKWFTRFCTETGKFLCKRSIKNSCT
# Legend:
# Assay in all cases: glycan array binding signal (z-score within array); higher = stronger binding
# Settings in all cases: glycan notation: IUPAC condensed, linker removed
# [1] = molecular target: Fuc(a1-3)GlcNAc
# Method in brief: (§1)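 Columns mapping to the same glycan were averaged after glycan names were converted to IUPAC-condensed notation. The data come from 3228 arrays in the Consortium for Functional Glycomics database, limited to those with an available protein sequence. Binding is reported as a within-array Z-score averaged across arrays of one protein sequence and across linkers.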
# [2] = molecular target: Fuc(a1-3)[Gal(b1-4)]Glc6S
# Method in brief: as §1
# [3] = molecular target: Fuc(a1-3)[Gal(b1-4)]GlcNAc
# Method in brief: as §1
# [4] = molecular target: Fuc(a1-3)[Gal(b1-4)]GlcNAc(b1-2)Man
# Method in brief: as §1
# [5] = molecular target: Fuc(a1-3)[Gal(b1-4)]GlcNAc(b1-2)Man(a1-3)[Fuc(a1-3)[Gal(b1-4)]GlcNAc(b1-2)Man(a1-6)]Man(b1-4)GlcNAc(b1-4)GlcNAc
# Method in brief: as §1
# [6] = molecular target: Fuc(a1-3)[Gal(b1-4)]GlcNAc(b1-2)Man(a1-3)[Fuc(a1-3)[Gal(b1-4)]GlcNAc(b1-2)Man(a1-6)]Man(b1-4)GlcNAc(b1-4)[Fuc(a1-6)]GlcNAc
# Method in brief: as §1
# [7] = molecular target: Fuc(a1-3)[Gal(b1-4)]GlcNAc(b1-3)Gal(b1-3)[Fuc(a1-4)]GlcNAc
# Method in brief: as §1
# [8] = molecular target: Fuc(a1-3)[Gal(b1-4)]GlcNAc(b1-3)Gal(b1-4)[Fuc(a1-3)]GlcNAc
# Method in brief: as §1
# [9] = molecular target: Fuc(a1-3)[Gal(b1-4)]GlcNAc(b1-3)Gal(b1-4)[Fuc(a1-3)]GlcNAc(b1-3)Gal(b1-4)[Fuc(a1-3)]GlcNAc
# Method in brief: as §1
# [10] = molecular target: Fuc(a1-3)[Gal(b1-4)]GlcNAc(b1-3)GalNAc
# Method in brief: as §1
# [11] = molecular target: Fuc(a1-3)[Gal(b1-4)]GlcNAc(b1-6)GalNAc
# Method in brief: as §1
# [12] = molecular target: Fuc(a1-3)[Gal(b1-4)]GlcNAc(b1-6)[Gal(b1-3)GlcNAc(b1-3)]Gal(b1-4)Glc
# Method in brief: as §1
# [13] = molecular target: Fuc(a1-3)[Gal(b1-4)]GlcNAc6S
# Method in brief: as §1
# [14] = molecular target: Fuc(a1-3)[Gal3S(b1-4)]Glc
# Method in brief: as §1
# [15] = molecular target: Fuc(a1-3)[Gal3S(b1-4)]GlcNAc
# Method in brief: as §1
# [16] = molecular target: Fuc(a1-3)[Gal3S(b1-4)]GlcNAc6S
# Method in brief: as §1
# [17] = molecular target: Fuc(a1-3)[GalNAc(b1-4)]GlcNAc
# Method in brief: as §1
# [18] = molecular target: Fuc(a1-3)[GalNAc(b1-4)]GlcNAc6S
# Method in brief: as §1
# [19] = molecular target: Fuc(a1-4)GlcNAc
# Method in brief: as §1
# [20] = molecular target: Fuc(b1-3)GlcNAc
# Method in brief: as §1
# [21] = molecular target: Gal(a1-2)Gal
# Method in brief: as §1
# [22] = molecular target: Gal(a1-3)Gal
# Method in brief: as §1
# [23] = molecular target: Gal(a1-3)Gal(b1-3)GlcNAc
# Method in brief: as §1
# [24] = molecular target: Gal(a1-3)Gal(b1-3)GlcNAc(b1-2)Man
# Method in brief: as §1
# [25] = molecular target: Gal(a1-3)Gal(b1-3)GlcNAc(b1-2)Man(a1-3)[Gal(a1-3)Gal(b1-3)GlcNAc(b1-2)Man(a1-6)]Man(b1-4)GlcNAc(b1-4)GlcNAc
# Method in brief: as §1
# [26] = molecular target: Gal(a1-3)Gal(b1-3)GlcNAc(b1-3)GalNAc
# Method in brief: as §1
# [27] = molecular target: Gal(a1-3)Gal(b1-3)GlcNAc(b1-6)GalNAc
# Method in brief: as §1
# [28] = molecular target: Gal(a1-3)Gal(b1-3)[Fuc(a1-4)]GlcNAc(b1-2)Man(a1-3)[Gal(a1-3)Gal(b1-3)[Fuc(a1-4)]GlcNAc(b1-2)Man(a1-6)]Man(b1-4)GlcNAc(b1-4)GlcNAc
# Method in brief: as §1
# [29] = molecular target: Gal(a1-3)Gal(b1-4)Glc
# Method in brief: as §1
# [30] = molecular target: Gal(a1-3)Gal(b1-4)GlcNAc
# Method in brief: as §1
# [31] = molecular target: Gal(a1-3)Gal(b1-4)GlcNAc(b1-2)Man
# Method in brief: as §1
# [32] = molecular target: Gal(a1-3)Gal(b1-4)GlcNAc(b1-2)Man(a1-3)[Gal(a1-3)Gal(b1-4)GlcNAc(b1-2)Man(a1-6)]Man(b1-4)GlcNAc(b1-4)GlcNAc
# Method in brief: as §1
# [33] = molecular target: Gal(a1-3)Gal(b1-4)GlcNAc(b1-3)GalNAc
# Method in brief: as §1
# [34] = molecular target: Gal(a1-3)Gal(b1-4)GlcNAc(b1-6)GalNAc
# Method in brief: as §1
# [35] = molecular target: Gal(a1-3)Gal(b1-4)[Fuc(a1-3)]GlcNAc
# Method in brief: as §1
# [36] = molecular target: Gal(a1-3)Gal(b1-4)[Fuc(a1-3)]GlcNAc(b1-2)Man(a1-3)[Gal(a1-3)Gal(b1-4)[Fuc(a1-3)]GlcNAc(b1-2)Man(a1-6)]Man(b1-4)GlcNAc(b1-4)GlcNAc
# Method in brief: as §1
# [37] = molecular target: Gal(a1-3)GalNAc
# Method in brief: as §1
binder,measurement,setting,value
B1,glycan array binding signal (z-score),[1],-1.1
same,glycan array binding signal (z-score),[2],-0.794
same,glycan array binding signal (z-score),[3],-0.574
same,glycan array binding signal (z-score),[4],-0.391
same,glycan array binding signal (z-score),[5],-0.109
same,glycan array binding signal (z-score),[6],4.38
same,glycan array binding signal (z-score),[7],-0.807
same,glycan array binding signal (z-score),[8],-0.131
same,glycan array binding signal (z-score),[9],0.41
same,glycan array binding signal (z-score),[10],0.908
same,glycan array binding signal (z-score),[11],0.7
same,glycan array binding signal (z-score),[12],-1.38
same,glycan array binding signal (z-score),[13],-0.848
same,glycan array binding signal (z-score),[14],0.025
same,glycan array binding signal (z-score),[15],-0.816
same,glycan array binding signal (z-score),[16],-0.835
same,glycan array binding signal (z-score),[17],-0.638
same,glycan array binding signal (z-score),[18],-1.31
same,glycan array binding signal (z-score),[19],-0.161
same,glycan array binding signal (z-score),[20],-0.031
same,glycan array binding signal (z-score),[21],-0.318
same,glycan array binding signal (z-score),[22],0.358
same,glycan array binding signal (z-score),[23],0.07
same,glycan array binding signal (z-score),[24],-1.08
same,glycan array binding signal (z-score),[25],1.29
same,glycan array binding signal (z-score),[26],-0.178
same,glycan array binding signal (z-score),[27],-0.374
same,glycan array binding signal (z-score),[28],1.11
same,glycan array binding signal (z-score),[29],-0.683
same,glycan array binding signal (z-score),[30],0.408
same,glycan array binding signal (z-score),[31],-0.329
same,glycan array binding signal (z-score),[32],0.493
same,glycan array binding signal (z-score),[33],-1.04
same,glycan array binding signal (z-score),[34],-1.28
same,glycan array binding signal (z-score),[35],-0.664
same,glycan array binding signal (z-score),[36],1.5
same,glycan array binding signal (z-score),[37],-0.307

# Another view of some results above.
binder | measurement | setting | value
B1 | glycan array binding signal (z-score) | [1] | -1.1
same | glycan array binding signal (z-score) | [2] | -0.794
same | glycan array binding signal (z-score) | [3] | -0.574
same | glycan array binding signal (z-score) | [4] | -0.391
same | glycan array binding signal (z-score) | [5] | -0.109
same | glycan array binding signal (z-score) | [6] | 4.38
same | glycan array binding signal (z-score) | [7] | -0.807
same | glycan array binding signal (z-score) | [8] | -0.131
same | glycan array binding signal (z-score) | [9] | 0.41
same | glycan array binding signal (z-score) | [10] | 0.908
